The text below walks through data of PMC7089733.

For at least one entry, the source does not settle the construct or the ends of the probe. Weaker means in comparison with the reference protein, sequence or condition of that experiment.

The test system of the data set is Nop5-E65C spin-labelled + L7Ae + fibrillarin E65C,L113K,V223E. Put plainly: NMR PRE. The conditions noted are these: 50 mM NaPi, 500 mM NaCl, pH 6.6, 100% D2O (NMR), 55 C, SANS in 42%:58% D2O:H2O, substrate at 1.2-1.25 molar equivalents, recombinant protein.

Consider “GCGAGCAAUGAUGAGUGAUGGGCGAACUGAGCUCGAAAGAGCAAUGAUGACGGAGGUGAUCACUGAGCUCGC / GCUUCGCCCAUCAC [st-sR26 + substrate D']”, for which the binding result (stronger PRE on L7Ae than with substrate D) is listed as “binds”.
On to “GCGAGCAAUGAUGAGUGAUGGGCGAACUGAGCUCGAAAGAGCAAUGAUGACGGAGGUGAUCACUGAGCUCGC / GUAGAUCACCUCCG [st-sR26 + substrate D]”, for which the binding result (weaker PRE on L7Ae than with substrate D') is on record as “binds more weakly”.
